PubChem BioAssay AID652259 | Drosophila RNAi Screening Center, 2013

Test: 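Genome-wide hunt for genes that control Wingless pathway activity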 (primary screen)
System: Drosophila clone 8 imaginal disc epithelial cells
Knock-down reagent: long dsRNA against Drosophila genes
Treatment: pathway stimulated by co-transfected Wingless expression plasmid
Read-out: 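Firefly luciferase from a tcf-site Wingless reporter, measured alongside co-transfected Renilla luciferase that tracks transfection; pathway stimulated by a Wingless plasmid; the firefly-to-Renilla ratio is not deposited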
Reading the numbers: firefly reporter light: higher = more Wg reporter light, before normalisation; Renilla control light: higher = more transfected or surviving cells
Active means: 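a knock-down is a candidate when at least two out of four statistical tests show it departing from its plate mean; one test alone signals a weak candidate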
Meaning of the calls: active = candidate regulator (raises or lowers reporter); inactive = not a candidate
In all, the deposit lists about 22,000 reagents; this is a random part of those that have a named target and a result. In the full data, 233 (1.1%) got an active call. 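Light values are raw, unnormalised plate reads; the ratio scores behind the reporter calls were not deposited.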 Names joined by + are all predicted targets of the reagent. No sequences are given here. Not stated in the record: the amount of reagent, the time to read-out, the dose of the treatment.

{"gene knocked down": "CG3788", "amplicon": "DRSC04418", "firefly reporter light, replicate 1": 2600, "firefly reporter light, replicate 2": 10049, "Renilla control light, replicate 1": 804, "Renilla control light, replicate 2": 3468, "call": "inactive"}
{"gene knocked down": "CG4679", "amplicon": "DRSC06880", "firefly reporter light, replicate 1": 5264, "Renilla control light, replicate 1": 1828, "call": "inactive"}
{"gene knocked down": "CG34277 + CG31542", "amplicon": "DRSC21544", "firefly reporter light, replicate 1": 4.74e5, "firefly reporter light, replicate 2": 4.68e5, "Renilla control light, replicate 1": 1.15e5, "Renilla control light, replicate 2": 96311, "call": "inactive"}
{"gene knocked down": "sigmar", "amplicon": "DRSC04449", "firefly reporter light, replicate 1": 13524, "Renilla control light, replicate 1": 3639, "call": "inactive"}
{"gene knocked down": "CG32708", "amplicon": "DRSC18411", "firefly reporter light, replicate 1": 33238, "Renilla control light, replicate 1": 17922, "call": "inactive"}
{"gene knocked down": "Mat1", "amplicon": "DRSC07465", "firefly reporter light, replicate 1": 2984, "firefly reporter light, replicate 2": 7732, "Renilla control light, replicate 1": 664, "Renilla control light, replicate 2": 2536, "call": "inactive"}
{"gene knocked down": "CG32391", "amplicon": "DRSC08865", "firefly reporter light, replicate 1": 3472, "Renilla control light, replicate 1": 1698, "call": "inactive"}
{"gene knocked down": "CG17168", "amplicon": "DRSC20904", "firefly reporter light, replicate 1": 14593, "Renilla control light, replicate 1": 8620, "call": "inactive"}
{"gene knocked down": "SkpB", "amplicon": "DRSC07683", "firefly reporter light, replicate 1": 12007, "Renilla control light, replicate 1": 2860, "call": "inactive"}
{"gene knocked down": "CG15357", "amplicon": "DRSC00387", "firefly reporter light, replicate 1": 3984, "firefly reporter light, replicate 2": 5766, "Renilla control light, replicate 1": 1241, "Renilla control light, replicate 2": 2492, "call": "inactive"}
{"gene knocked down": "CG14110", "amplicon": "DRSC10113", "firefly reporter light, replicate 1": 9749, "Renilla control light, replicate 1": 3362, "call": "inactive"}
{"gene knocked down": "mei-S332", "amplicon": "DRSC04704", "firefly reporter light, replicate 1": 11568, "Renilla control light, replicate 1": 3139, "call": "inactive"}
{"gene knocked down": "CG3769", "amplicon": "DRSC02723", "firefly reporter light, replicate 1": 3899, "firefly reporter light, replicate 2": 7857, "Renilla control light, replicate 1": 790, "Renilla control light, replicate 2": 3016, "call": "inactive"}
{"gene knocked down": "p130CAS", "amplicon": "DRSC07862", "firefly reporter light, replicate 1": 2721, "Renilla control light, replicate 1": 1872, "call": "inactive"}
{"gene knocked down": "p130CAS", "amplicon": "DRSC08257", "firefly reporter light, replicate 1": 17794, "Renilla control light, replicate 1": 5649, "call": "inactive"}
{"gene knocked down": "CG8745", "amplicon": "DRSC11033", "reporter change call, replicate 1": "Wg reporter activity lowered", "firefly reporter light, replicate 1": 4853, "Renilla control light, replicate 1": 1300, "call": "inactive"}
{"gene knocked down": "CG8745", "amplicon": "DRSC11034", "firefly reporter light, replicate 1": 9393, "Renilla control light, replicate 1": 4061, "call": "inactive"}
{"gene knocked down": "CG8745", "amplicon": "DRSC22741", "firefly reporter light, replicate 1": 5.40e5, "firefly reporter light, replicate 2": 5.54e5, "Renilla control light, replicate 1": 1.86e5, "Renilla control light, replicate 2": 1.31e5, "call": "inactive"}

Targets above whose target name starts with M or m:
{"gene knocked down": "Mat1", "amplicon": "DRSC07465", "firefly reporter light, replicate 1": 2984, "firefly reporter light, replicate 2": 7732, "Renilla control light, replicate 1": 664, "Renilla control light, replicate 2": 2536, "call": "inactive"}
{"gene knocked down": "mei-S332", "amplicon": "DRSC04704", "firefly reporter light, replicate 1": 11568, "Renilla control light, replicate 1": 3139, "call": "inactive"}
